Measurements from patent publication US10188666B2, “Dendrogenin A and antineoplastic agents for the treatment of chemosensitive or chemoresistant tumors” (priority 2013, dated 2019).

System: KG1a cells
Assay: MTT cell viability assay, KG1a cells
Type: cell-based
Conditions: chemoresistant KG1a versus chemosensible KG1
Description: Briefly, effect of drugs alone and in combinations were determined for a 3-5 log scale of concentrations of drugs and with a constant ratio between the two drugs used for co-treatment. Cells were seeded in 96-well plates (50 000 cell/well). Cells were treated just after seeding, for 48 hours. Cell viability was determined with MTT assay. Cells were centrifuged 5 minutes at 1200 rpm, medium removed, 100 μl of MTT solution (1 mg/ml in PBS) added, incubated for 2 hours at 37° C., centrifuged, MTT solution removed and DMSO (100 μl) added to dissolve purple formazan formed by living cells. Absorbance of the solution was determined at 540 nm.
HL60, KG1, KG1a and MV4-11 cells were seeded in 96-well plates (50 000 cells/well). Cells were treated just after seeding with increasing doses of daunorubicin, for 48 hours. Cell viability was determined with MTT assay as follows: cells were centrifuged 5 minutes at 1200 rpm, medium removed, 100 μl of MTT solution (1 mg/ml in PBS) added, incubated for 2 hours at 37° C., centrifuged, MTT solution removed and DMSO (100 μl) added to dissolve purple formazan formed by living cells. Absorbance of the solution was determined at 540 nm.
HL60, KG1, KG1a and MV4-11 cells were seeded in 96-well plates (50 000 cells/well). Cells were treated just after seeding with increasing doses of cytarabine, for 48 hours.
HL60, KG1, KG1a and MV4-11 cells were seeded in 96-well plates (50 000 cells/well).
HL60, KG1, KG1a and MV4-11 cells were seeded in 96-well plates (50 000 cells/well). Cells were treated just after seeding with increasing doses of cisplatin, for 48 hours.
HL60, KG1, KG1a and MV4-11 cells were seeded in 96-well plates (50 000 cells/well). Cells were treated just after seeding with increasing doses of Dendrogenin A, for 48 hours.
(§1) KG1a cells were seeded in 96-well plates (50 000 cells/well).
as §1
KG1a cells were seeded in 96-well plates (50 000 cells/well). […]

Row | Compound | KG1a/KG1 IC50 ratio
1 | N.N.[Cl][Pt][Cl] [Cisplatin] | 2.9
2 | Nc1ccn([C@@H]2O[C@H](CO)[C@@H](O)[C@@H]2O)c(=O)n1 [Cytarabine] | 4.5
3 | COc1cccc2c1C(=O)c1c(O)c3c(c(O)c1C2=O)C[C@@](O)(C(C)=O)C[C@@H]3O[C@H]1C[C@H](N)[C@H](O)[C@H](C)O1 [Daunorubicin] | 17
4 | CC(C)CCC[C@@H](C)[C@H]1CC[C@H]2[C@@H]3C[C@@H](NCCc4cnc[nH]4)[C@@]4(O)C[C@@H](O)CC[C@]4(C)[C@H]3CC[C@]12C [Dendrogenin A, 5α-hydroxy-6β-[2-(1H-imidazol-4-yl)ethylamino]cholestan-3β-ol] | 1.5
